From article PMC9398005

Chains of the proteins cited; added tags and fusions are not shown. Residues count along the entry.
UniProt P31266, whole entry E89G: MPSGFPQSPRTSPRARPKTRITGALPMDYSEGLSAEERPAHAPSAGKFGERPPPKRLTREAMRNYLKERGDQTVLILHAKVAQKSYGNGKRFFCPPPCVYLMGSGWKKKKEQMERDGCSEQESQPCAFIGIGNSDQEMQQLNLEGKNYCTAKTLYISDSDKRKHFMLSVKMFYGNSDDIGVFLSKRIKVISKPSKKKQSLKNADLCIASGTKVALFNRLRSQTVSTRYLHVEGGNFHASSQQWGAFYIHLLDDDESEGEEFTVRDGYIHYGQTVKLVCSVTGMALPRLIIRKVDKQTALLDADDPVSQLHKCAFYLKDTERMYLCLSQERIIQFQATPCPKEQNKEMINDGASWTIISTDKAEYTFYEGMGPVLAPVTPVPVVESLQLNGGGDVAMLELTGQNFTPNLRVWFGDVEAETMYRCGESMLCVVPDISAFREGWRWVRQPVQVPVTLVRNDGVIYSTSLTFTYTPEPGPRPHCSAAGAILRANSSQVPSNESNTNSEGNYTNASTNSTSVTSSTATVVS
UniProt P31266, whole entry K195E: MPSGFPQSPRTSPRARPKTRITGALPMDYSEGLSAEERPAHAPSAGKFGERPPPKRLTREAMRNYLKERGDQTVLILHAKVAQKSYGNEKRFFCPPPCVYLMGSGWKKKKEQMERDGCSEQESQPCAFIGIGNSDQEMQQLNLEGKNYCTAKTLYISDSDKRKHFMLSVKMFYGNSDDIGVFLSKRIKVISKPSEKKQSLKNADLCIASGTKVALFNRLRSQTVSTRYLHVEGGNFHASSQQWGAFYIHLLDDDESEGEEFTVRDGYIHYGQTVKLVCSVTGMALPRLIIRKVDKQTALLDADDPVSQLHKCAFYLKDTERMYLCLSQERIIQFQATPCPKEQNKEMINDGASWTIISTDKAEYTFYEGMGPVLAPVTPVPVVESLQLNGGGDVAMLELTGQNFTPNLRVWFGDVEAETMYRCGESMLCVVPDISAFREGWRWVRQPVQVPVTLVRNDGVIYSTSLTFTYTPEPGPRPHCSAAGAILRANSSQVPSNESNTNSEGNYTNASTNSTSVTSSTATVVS
UniProt P31266, 53-474 E89G: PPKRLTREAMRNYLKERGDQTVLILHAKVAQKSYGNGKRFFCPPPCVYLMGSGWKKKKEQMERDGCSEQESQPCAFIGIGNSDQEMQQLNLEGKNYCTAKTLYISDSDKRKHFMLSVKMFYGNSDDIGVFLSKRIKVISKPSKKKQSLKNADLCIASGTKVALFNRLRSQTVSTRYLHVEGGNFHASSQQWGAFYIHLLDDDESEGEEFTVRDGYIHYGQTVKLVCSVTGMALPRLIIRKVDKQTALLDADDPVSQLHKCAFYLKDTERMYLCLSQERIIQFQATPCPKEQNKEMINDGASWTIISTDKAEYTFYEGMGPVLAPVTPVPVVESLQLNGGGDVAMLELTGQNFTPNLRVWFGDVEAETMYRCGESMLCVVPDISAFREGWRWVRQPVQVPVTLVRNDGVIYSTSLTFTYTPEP
UniProt P31266, 53-474 K195E: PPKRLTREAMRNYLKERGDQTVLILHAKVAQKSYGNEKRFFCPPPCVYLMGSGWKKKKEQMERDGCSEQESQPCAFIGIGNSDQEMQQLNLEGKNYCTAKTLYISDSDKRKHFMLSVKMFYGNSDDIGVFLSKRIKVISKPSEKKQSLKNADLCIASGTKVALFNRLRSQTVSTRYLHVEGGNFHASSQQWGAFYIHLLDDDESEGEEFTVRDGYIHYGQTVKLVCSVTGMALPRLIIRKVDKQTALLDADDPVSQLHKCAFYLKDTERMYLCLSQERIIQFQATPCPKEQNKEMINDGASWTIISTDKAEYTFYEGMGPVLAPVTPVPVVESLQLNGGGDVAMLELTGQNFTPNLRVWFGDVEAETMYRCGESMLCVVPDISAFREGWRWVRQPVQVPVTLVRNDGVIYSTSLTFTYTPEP

Assays:
Test in all cases: EMSA
[1] = biological target: Flag-Rbpj E89G full length (mouse) (UniProt P31266); settings: poly(dI-dC); EMSA purified: 3.4 nM probe, 10 min room temperature; protein translated in vitro; protein details: Flag; label: 32P
[2] = biological target: Flag-Rbpj K195E full length (mouse) (UniProt P31266); settings: poly(dI-dC); EMSA purified: 3.4 nM probe, 10 min room temperature; protein translated in vitro; protein details: Flag; label: 32P
Rbpj E89G (mouse) = Rbpj E89G (mouse) (UniProt P31266); settings: EMSA purified: 3.4 nM probe, 10 min room temperature; recombinant protein; residues 53-474; protein details: GST removed by PreScission (pGEX-6P1); label: IRDye-700 at 5' end of strand 2
Rbpj K195E (mouse) = Rbpj K195E (mouse) (UniProt P31266); settings: EMSA purified: 3.4 nM probe, 10 min room temperature; recombinant protein; residues 53-474; protein details: GST removed by PreScission (pGEX-6P1); label: IRDye-700 at 5' end of strand 2

CCTGGAACTATTTTCCCACGGTGCCCTTCCGCCCATTTTCCCACGAGTCG / CTCGCGACTCGTGGGAAAATGGGCGGAAGGGCACCGTGGGAAAATAGTTC [EMSA probe with 2 RBPJ sites]
binding result [1]: binds more weakly
binding result [2]: binds more weakly

CGAACGAGGCAAACCTAGGCTAGAGGCACCGTGGGAAACTAGTGCGGGCGTGGCT (double strand) [EMSA high affinity CSL probe]
binding result (Rbpj E89G (mouse)): binds more weakly
binding result (Rbpj K195E (mouse)): binds more weakly

A weaker result is weaker than the reference pair of the same experiment. For some of these results: The exact form of at least one protein or probe is not confirmed.
